Test results as given in article doi:10.1101/2021.02.12.430872.
Results are given in words; binding and its absence hold for the method and conditions named. In cells and extracts the contact can be indirect. These calls come from enrichment with a bait or labelling near it, and not all partners need be listed. Values belong to the molecule of their own block, whether it stands above or below them.

By UniProt entry, the sequences of proteins in these tests, tags left out.
UniProt Q8C0T5: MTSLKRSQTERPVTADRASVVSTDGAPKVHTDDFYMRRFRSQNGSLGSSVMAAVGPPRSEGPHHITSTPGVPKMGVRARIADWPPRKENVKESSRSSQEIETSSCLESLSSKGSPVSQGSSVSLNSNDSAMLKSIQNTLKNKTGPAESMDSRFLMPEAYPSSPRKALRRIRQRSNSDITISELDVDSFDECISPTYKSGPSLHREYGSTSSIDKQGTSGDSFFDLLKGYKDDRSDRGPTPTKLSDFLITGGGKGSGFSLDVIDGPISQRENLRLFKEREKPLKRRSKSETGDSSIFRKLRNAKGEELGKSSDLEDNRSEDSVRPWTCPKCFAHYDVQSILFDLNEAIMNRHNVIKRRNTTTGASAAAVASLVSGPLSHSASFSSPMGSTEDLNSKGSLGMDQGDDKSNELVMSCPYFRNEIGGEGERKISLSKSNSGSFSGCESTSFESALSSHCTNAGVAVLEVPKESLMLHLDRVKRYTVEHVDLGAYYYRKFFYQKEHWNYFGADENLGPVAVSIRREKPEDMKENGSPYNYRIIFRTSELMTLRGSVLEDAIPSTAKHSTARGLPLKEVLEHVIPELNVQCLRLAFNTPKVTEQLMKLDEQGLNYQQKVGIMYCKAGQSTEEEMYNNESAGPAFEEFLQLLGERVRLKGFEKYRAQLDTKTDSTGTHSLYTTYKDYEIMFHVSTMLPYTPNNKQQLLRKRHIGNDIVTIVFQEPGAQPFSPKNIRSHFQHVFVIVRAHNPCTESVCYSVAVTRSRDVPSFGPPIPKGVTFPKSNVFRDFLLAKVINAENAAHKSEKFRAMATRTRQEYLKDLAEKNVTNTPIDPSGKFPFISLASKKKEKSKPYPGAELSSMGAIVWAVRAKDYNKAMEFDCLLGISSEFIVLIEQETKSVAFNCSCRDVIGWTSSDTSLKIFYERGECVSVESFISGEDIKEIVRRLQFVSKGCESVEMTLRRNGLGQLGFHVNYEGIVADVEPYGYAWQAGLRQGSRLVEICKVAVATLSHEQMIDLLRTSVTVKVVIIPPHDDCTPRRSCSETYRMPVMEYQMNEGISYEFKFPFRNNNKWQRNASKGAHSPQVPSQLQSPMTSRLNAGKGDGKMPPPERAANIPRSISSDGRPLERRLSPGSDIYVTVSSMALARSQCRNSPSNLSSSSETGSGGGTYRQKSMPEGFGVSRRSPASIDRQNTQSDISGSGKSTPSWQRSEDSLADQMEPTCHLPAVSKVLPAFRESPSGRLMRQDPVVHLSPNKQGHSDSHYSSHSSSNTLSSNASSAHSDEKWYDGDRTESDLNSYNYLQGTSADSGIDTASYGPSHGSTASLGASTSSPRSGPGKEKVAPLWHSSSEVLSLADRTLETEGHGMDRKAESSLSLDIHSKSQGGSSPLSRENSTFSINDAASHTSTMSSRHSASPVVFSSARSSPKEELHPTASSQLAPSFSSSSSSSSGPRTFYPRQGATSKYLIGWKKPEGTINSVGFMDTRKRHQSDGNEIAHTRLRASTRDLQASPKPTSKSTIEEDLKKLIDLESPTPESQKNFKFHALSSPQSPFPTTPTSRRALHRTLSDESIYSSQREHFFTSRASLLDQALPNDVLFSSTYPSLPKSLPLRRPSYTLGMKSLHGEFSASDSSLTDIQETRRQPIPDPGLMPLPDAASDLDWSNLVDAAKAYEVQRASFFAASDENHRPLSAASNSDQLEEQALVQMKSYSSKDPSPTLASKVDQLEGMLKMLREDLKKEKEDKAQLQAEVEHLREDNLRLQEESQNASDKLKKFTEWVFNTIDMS
UniProt Q7TPR4: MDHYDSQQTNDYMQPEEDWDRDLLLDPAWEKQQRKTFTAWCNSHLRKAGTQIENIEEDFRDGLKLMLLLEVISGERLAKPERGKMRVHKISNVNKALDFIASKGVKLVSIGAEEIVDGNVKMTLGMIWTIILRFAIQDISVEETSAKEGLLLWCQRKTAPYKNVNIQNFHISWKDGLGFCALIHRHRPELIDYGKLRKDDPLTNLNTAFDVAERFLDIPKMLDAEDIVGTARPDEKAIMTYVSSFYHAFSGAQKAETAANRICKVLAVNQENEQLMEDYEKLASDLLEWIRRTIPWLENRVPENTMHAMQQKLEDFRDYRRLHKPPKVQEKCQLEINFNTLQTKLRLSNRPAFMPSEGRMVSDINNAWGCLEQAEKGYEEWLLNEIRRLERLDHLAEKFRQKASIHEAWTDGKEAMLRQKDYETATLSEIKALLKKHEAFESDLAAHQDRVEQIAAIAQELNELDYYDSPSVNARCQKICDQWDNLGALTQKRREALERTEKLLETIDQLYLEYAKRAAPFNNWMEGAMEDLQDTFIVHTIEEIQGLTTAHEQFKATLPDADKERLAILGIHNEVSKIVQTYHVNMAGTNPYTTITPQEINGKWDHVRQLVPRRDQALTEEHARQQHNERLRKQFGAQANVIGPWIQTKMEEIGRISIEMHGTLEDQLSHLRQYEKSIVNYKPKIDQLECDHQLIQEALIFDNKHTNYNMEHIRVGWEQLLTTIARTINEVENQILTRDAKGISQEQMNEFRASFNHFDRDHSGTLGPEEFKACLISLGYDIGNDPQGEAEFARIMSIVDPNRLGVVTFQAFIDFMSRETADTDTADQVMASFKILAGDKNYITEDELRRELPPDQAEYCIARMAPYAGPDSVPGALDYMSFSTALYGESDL
UniProt Q6R891: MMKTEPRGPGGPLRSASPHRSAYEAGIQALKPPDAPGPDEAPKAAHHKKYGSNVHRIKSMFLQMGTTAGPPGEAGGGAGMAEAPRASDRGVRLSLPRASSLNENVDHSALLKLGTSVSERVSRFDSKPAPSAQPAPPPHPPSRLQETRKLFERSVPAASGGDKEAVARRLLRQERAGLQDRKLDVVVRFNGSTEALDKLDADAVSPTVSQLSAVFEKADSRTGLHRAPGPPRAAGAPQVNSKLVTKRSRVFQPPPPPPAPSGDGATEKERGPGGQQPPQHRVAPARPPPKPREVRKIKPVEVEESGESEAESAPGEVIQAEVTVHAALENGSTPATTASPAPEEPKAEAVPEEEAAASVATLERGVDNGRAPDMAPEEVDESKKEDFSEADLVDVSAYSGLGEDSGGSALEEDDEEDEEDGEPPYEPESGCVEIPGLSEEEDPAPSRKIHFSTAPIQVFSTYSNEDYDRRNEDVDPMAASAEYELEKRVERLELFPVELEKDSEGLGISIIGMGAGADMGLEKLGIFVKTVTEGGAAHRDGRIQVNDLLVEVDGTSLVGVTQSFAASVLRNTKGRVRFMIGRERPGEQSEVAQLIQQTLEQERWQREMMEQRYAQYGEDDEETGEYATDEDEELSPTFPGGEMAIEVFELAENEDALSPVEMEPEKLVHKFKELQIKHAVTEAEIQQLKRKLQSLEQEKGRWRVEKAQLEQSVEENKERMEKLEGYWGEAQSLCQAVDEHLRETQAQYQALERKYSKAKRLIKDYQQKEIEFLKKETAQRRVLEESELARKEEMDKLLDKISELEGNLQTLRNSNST
UniProt A2AHG0: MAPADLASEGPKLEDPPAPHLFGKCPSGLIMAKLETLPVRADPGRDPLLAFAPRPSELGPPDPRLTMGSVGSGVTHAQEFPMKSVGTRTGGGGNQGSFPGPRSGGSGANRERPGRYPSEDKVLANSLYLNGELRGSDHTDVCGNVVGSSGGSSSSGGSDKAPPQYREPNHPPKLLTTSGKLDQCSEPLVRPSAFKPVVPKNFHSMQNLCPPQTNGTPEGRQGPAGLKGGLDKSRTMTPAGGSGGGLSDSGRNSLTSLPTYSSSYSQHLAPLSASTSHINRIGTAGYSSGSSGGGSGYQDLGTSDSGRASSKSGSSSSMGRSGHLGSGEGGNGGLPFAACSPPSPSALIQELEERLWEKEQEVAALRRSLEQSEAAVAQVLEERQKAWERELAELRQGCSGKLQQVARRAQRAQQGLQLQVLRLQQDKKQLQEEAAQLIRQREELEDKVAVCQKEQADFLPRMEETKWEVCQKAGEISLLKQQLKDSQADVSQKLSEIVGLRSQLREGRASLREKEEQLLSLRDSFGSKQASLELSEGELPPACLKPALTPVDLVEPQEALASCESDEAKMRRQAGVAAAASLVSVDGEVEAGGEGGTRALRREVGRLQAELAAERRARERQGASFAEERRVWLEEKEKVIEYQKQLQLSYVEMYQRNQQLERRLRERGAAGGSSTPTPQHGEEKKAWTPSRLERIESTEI

Biological target: Signal-induced proliferation-associated 1 (SIPA1)-like 1 (SIPA1L1) (mouse (endogenous in brain)) (UniProt Q8C0T5)
Assay: affinity purification with mass spectrometry

binding: binds
Molecule: α-actinin-1 (from UniProt Q7TPR4 1-892)

binding: binds
Molecule: spinophilin (neurabin-2/PP1R9B) (from UniProt Q6R891 1-817)

binding: binds
Molecule: LZTS3/Pro-SAPiP1 (from UniProt A2AHG0 1-700)

binding: binds
B1: drebrin (protein, UniProt Q9QXS6 1-706)
chain: MAGVSFSGHRLELLAAYEEVIREESAADWALYTYEDGSDDLKLAASGEGGLQELSGHFENQKVMYGFCSVKDSQAALPKYVLINWVGEDVPDARKCACASHVAKVAEFFQGVDVIVNASSVEDIDAGAIGQRLSNGLARLSSPVLHRLRLREDENAEPVGTTYQKTDAAVEMKRINREQFWEQAKKEEELRKEEERKKALDARLRFEQERMEQERQEQEERERRYREREQQIEEHRRKQQSLEAEEAKRRLKEQSIFGDQRDEEEESQMKKSESEVEEAAAIIAQRPDNPREFFRQQERVASASGGSCDAPAPAPFNHRPGRPYCPFIKASDSGPSSSSSSSSSPPRTPFPYITCHRTPNLSSSLPCSHLDSHRRMAPTPIPTRSPSDSSTASTPIAEQIERALDEVTSSQPPPPPPPPPPTQEAQETTPSLDEELSKEAKVTAAPEVWAGCAAEPPQAQEPPLLQSSPLEDSMCTESPEQAALAAPAEPAASVTSVADVHAADTIETTTATTDTTIANNVTPAAASLIDLWPGNGEEASTLQAEPRVPTPPSGAEASLAEVPLLNEAAQEPLPPVGEGCANLLNFDELPEPPATFCDPEEEVGETLAASQVLTMPSALEEVDQVLEQELEPEPHLLTNGETTQKEGTQASEGYFSQSQEEEFAQSEEPCAKVPPPVFYNKPPEIDITCWDADPVPEEEEGFEGGD

binding: binds
B2: LZTS1/PSD-Zip70 (protein, UniProt P60853 1-599)
chain: MGSVSSLISGHSFHSKHCRASQYKLRKSSHLKKLNRYSDGLLRFGFSQDSGRGKSSSKMGKSEDFFYIKVSQKARGSHRPDYTALSSGDIGGQTGVDFDPATPPKLMPFSNQLEMSSDKGAVRPTAFKPVLPRSGAILHSSPESTSHQLHPMPPDKPKEQELKPGLCSGALSDSGRNSMSSLPTHSTTSSYQLDPLVTPVGPTSRFGGSAHNITQGIILQDSNMMSLKALSFSDGGSKLAHPGKADKGASCVRSPLSTDECTIQELEQKLLQRETALQKLQRSFDEKEFASGQTFEERPRRTRDELECLEPKSKLKPPSQKSQRTQQVLQLQVLQLQQEKRQLRQELESLMKEQDLLETKLRSYEREKTNFAPALEETQWEVCQKSGEISLLKQQLKESQLEVNTKASEILSLKAQLKDTRGKLDGMELKTQDLESALRTKGLELEVCENELQRKKNEAELLREKVNLLEQELMELRAQAALHPAPLGPPGVGLTFSEDIPALQRELDRLRAELKEERQGHDQMSSGFQHERLVWKEEKEKVIQYQRQLQQSYLAMYQRNQRLEKALQQLARGDGPGEPFEIDLEGADIPYEDIIATEI
